This is one part of the list. The main result of the screen is listed elsewhere. These columns were measured beside it and carry no call. The list favours compounds with an active or inconclusive main result. The note in brackets gives the kind of curve behind each potency; many fits are weak.
Test: qHTS Assay to Find Inhibitors of Chronic Active B-Cell Receptor Signaling
Settings: ABC-DLBCL IkBa-CBG/CBR reporter, luminescence ratio (green luciferase fused to IkBa over red control in TMD8 lymphoma cells), 4 h
Method in brief: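 Concentration-response series (up to 46 uM) were applied to TMD8 dual-reporter cells for 4 h at 37C with doxycycline. Green/red ratio, after filter-overlap correction, defined %Activity; red signal alone was normalised to basal cells and zero luminescence.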

[1] = measured here: CBR red luminescence, cell number
[2] = measured here: IkBa-CBG green luminescence

Row | Compound | AC50 [1] | AC50 [2]
1 | Cc1ccc(C(=O)c2cc([N+](=O)[O-])ccc2N2CC(C)OC(C)C2)cc1 (stereo not given) | 2.91 µM [falling, single point] | –
2 | Nc1nc(-c2c[nH]c3ccccc23)cs1 | 3.26 µM [falling, full curve] | –
3 | CN(Cc1ccccc1)C(=S)NC(=O)c1ccc(-c2ccccc2)cc1 | 4.61 µM [rising, full curve, poor fit] | –
4 | COc1cc(C2C(C#N)=C(N)N(Nc3ccccc3)C3=C2C(=O)CC(C)(C)C3)ccc1OCc1ccccc1 (stereo not given) | 4.47 µM [falling, full curve] | –
5 | COc1ccc(Br)cc1C(=O)Nc1ccccc1-c1ccccc1 | 15.8 µM [rising, single point] | –
6 | COc1ccc(N2CC(C(=O)Nc3ccccc3C(=O)NC3CC3)CC2=O)cc1 (stereo not given) | 15.8 µM [rising, single point] | –
7 | CCc1ccc(C(=O)N/N=C/c2ccc(Cl)cc2Cl)nc1 | 2.06 µM [rising, partial curve, poor fit] | –
8 | O=C(c1ccc(N2CCOCC2)cc1)c1cccs1 | 16.4 µM [falling, partial curve] | –
9 | CC(C)CNS(=O)(=O)c1ccc(CCC(=O)N2CCN(Cc3ccc4c(c3)OCO4)CC2)cc1 | 32.6 µM [falling, single point] | –
10 | O=C(Nc1ccc(-c2noc(COc3ccccc3Cl)n2)cc1)c1ccco1 | 29.1 µM [rising, single point] | –
11 | CC(/C=N/Nc1ncc(C)c(=O)[nH]1)=C\c1ccccc1 | 10 µM [falling, partial curve] | –
12 | CCc1nnc(NC(=O)c2nc(S(=O)(=O)Cc3ccc(C)cc3)ncc2Cl)s1 | 35.5 µM [falling, partial curve, poor fit] | –
13 | Cn1nnnc1SCC(=O)Nc1ncc(C(F)(F)F)cc1Cl | 3.26 µM [rising, full curve, poor fit] | –
14 | C=CCc1cccc2cc(C(=O)NC3CCCC3)c(=O)oc12 | 12.6 µM [falling, partial curve, poor fit] | –
15 | O=C(NCc1ccccc1)c1ccc(-c2ccc(F)cc2)o1 | 29.1 µM [falling, single point] | –
16 | Cc1ccccc1CC1(CO)CCCN(Cc2ccccc2Cl)C1 (stereo not given) | 2.82 µM [rising, partial curve, poor fit] | –
17 | COCC(=O)n1nc(-c2ccccc2)nc1NCc1cccs1 | 12.6 µM [falling, single point] | –
18 | O=C(CS(=O)(=O)c1ccccc1)N1CCCCCC1 | 11.6 µM [rising, partial curve, poor fit] | –
19 | Cc1ccc(S(=O)(=O)c2c(COC(=O)c3cccc(Cl)c3)c(-c3ccccc3)nn2C)cc1 | 6.51 µM [rising, single point] | –
20 | Clc1cccc(/C=N/Nc2ncnc3ccccc23)c1 | 5.62 µM [falling, partial curve, poor fit] | –
21 | CCSc1nc(-c2ccccc2)c(-c2ccccc2)n1CC(O)CO (stereo not given) | 10 µM [falling, partial curve] | –

Row | Compound | AC50 [1] | AC50 [2]
22 | O=c1ccc2cc(S(=O)(=O)N3CCOCC3)ccc2o1 | 1.64 µM [falling, partial curve, poor fit] | –
23 | N#Cc1cc(C(=O)Cc2ccccc2)c[nH]1 | 7.08 µM [rising, partial curve, poor fit] | –
24 | O=C(O)c1ccccc1NC(=O)N1CCOCC1 | 22.4 µM [falling, single point] | –
25 | O=C1COc2ccc(C(=O)COC(=O)c3ccccc3F)cc2N1 | 25.9 µM [falling, partial curve, poor fit] | –
26 | CCc1cc2c(=O)c(-c3nc(C)cs3)coc2cc1OC(C)C(=O)NCCO (stereo not given) | 0.316 µM [falling, full curve, poor fit] | –
27 | O=C(c1ccoc1)N1CCC2(CC1)Oc1ccc(F)cc1C(=O)C21CC(c2ccccc2)=NO1 (stereo not given) | 35.5 µM [falling, single point] | –
28 | COc1ccc(CCNC(=O)COC(=O)c2cc(S(=O)(=O)N3CCOCC3)ccc2C)cc1OC | 20.6 µM [rising, single point] | 10.3 µM [falling, partial curve, poor fit]
29 | CCCCCCN(C(=O)CCCCCN1C(=O)NC(c2ccc(-c3ccccc3)cc2)C(C(=O)OCc2ccccc2)=C1C)C(C(=O)NCCCC)C1CCCCC1 (stereo not given) | 35.5 µM [rising, single point] | –
30 | CC(C(=O)NC1CCS(=O)(=O)C1)N1C(=O)/C(=C/c2ccc(Cl)cc2)SC1=S (stereo not given) | 35.5 µM [falling, single point] | –
31 | N#Cc1c(F)cccc1NCc1cccs1 | 5.62 µM [rising, single point] | –
32 | O=C(Nn1c(O)c(C=C2N=c3ccccc3=N2)sc1=S)c1ccc(Cl)cc1 | 3.66 µM [falling, full curve] | –
33 | N#CCCN/N=C(/Cc1nc2ccccc2[nH]1)c1ccc(Cl)cc1 | 29.1 µM [falling, single point] | –
34 | CN1CCN(CC#CCn2c3ccccc3c3ccccc32)CC1 | 4.61 µM [rising, single point] | –
35 | Cc1c(OCC(=O)NCC2CCC(C(=O)O)CC2)ccc2c(-c3ccccc3)cc(=O)oc12 (stereo not given) | 20 µM [rising, single point] | –
36 | COc1ccc(CNC(=O)CNC(=O)c2ccc(C(C)(C)C)cc2)cc1OC | 11.2 µM [rising, partial curve] | 11.2 µM [falling, partial curve, poor fit]
37 | O=C(CCNC(=O)c1ccc(Br)cc1)Nc1ccc(S(=O)(=O)N2CCCCC2)cc1 | 4.11 µM [falling, partial curve, poor fit] | –
38 | Cc1ccc(NC(=O)CN2C(=O)C3CC=CCC3C2=O)cc1S(=O)(=O)N1CCOCC1 (stereo not given) | 4.47 µM [rising, full curve, poor fit] | –
39 | FC(F)(F)c1ccc(NC(=S)NC2CCCCC2)cc1 | 6.31 µM [rising, partial curve, poor fit] | –
40 | COc1ccc2ncn(-c3ccccc3)c2c1 | 0.562 µM [rising, full curve, poor fit] | –
41 | Cc1ccc(-c2cnc(C3CC3)o2)cc1S(=O)(=O)Nc1ccccc1 | 35.5 µM [falling, single point] | –
42 | Cc1ccc(-c2ccc(S(=O)(=O)NCC3CCCO3)cc2)cc1 (stereo not given) | 0.1 µM [rising, full curve, poor fit] | –

2 of the compounds above, in CSV form.
Row,Compound,AC50 [1],AC50 [2]
26,CCc1cc2c(=O)c(-c3nc(C)cs3)coc2cc1OC(C)C(=O)NCCO (stereo not given),"0.316 µM [falling, full curve, poor fit]",–
27,O=C(c1ccoc1)N1CCC2(CC1)Oc1ccc(F)cc1C(=O)C21CC(c2ccccc2)=NO1 (stereo not given),"35.5 µM [falling, single point]",–

Further results:

Row | Compound | AC50 [1] | AC50 [2]
43 | CC(C)NC(=O)c1ccc(NC(=O)CC2SC(N3CCCCC3)=NC2=O)cc1 (stereo not given) | 9.2 µM [rising, partial curve, poor fit] | –
44 | C=CCn1c(SCC(=O)NC(=O)NCc2ccco2)nc2sc(C)c(C)c2c1=O | 25.1 µM [rising, single point] | 12.6 µM [falling, partial curve, poor fit]
45 | Cc1ccc(-c2c(C#N)c(N)n3c(nc4ccccc43)c2C#N)cc1 | 0.731 µM [rising, full curve] | –
46 | Clc1ccc(-c2nc3cnccn3c2Nc2ccc3c(c2)OCO3)cc1 | 29.1 µM [falling, single point] | –
47 | CC(C)C[C@H](NC(=O)c1nc[nH]c1C(=O)N(C)Cc1ccccc1)C(=O)OCc1ccccc1 | 15.8 µM [falling, single point] | –
48 | C#Cc1cccc(NC(=O)Cc2cccs2)c1 | 1.78 µM [rising, full curve, poor fit] | –
49 | COc1ccc(/C=N/NC(=O)c2ccn[nH]2)cc1Cn1cc([N+](=O)[O-])cn1 | 15.8 µM [falling, partial curve] | –
50 | Nc1ccc(C(=O)N/N=C/c2cn(Cc3ccccc3)c3ccccc23)cc1 | 35.5 µM [falling, single point] | –
51 | CC(C)c1ccc(OCC(=O)Nc2cccc(C(=O)Nc3ccccc3C(=O)O)c2)cc1 | 10 µM [falling, partial curve] | –
52 | CCOC(=O)c1ccccc1N1C(=O)C2Sc3[nH]c(=O)sc3C(/C=C/c3ccccc3)C2C1=O (stereo not given) | 20.6 µM [falling, partial curve, poor fit] | –
53 | Cc1[nH]c2ccccc2c1C(=O)C(C)OC(=O)c1ccccc1NCCO (stereo not given) | 0.82 µM [falling, full curve] | –
54 | COc1cccc(NC(=O)c2ccc3nc(C)sc3c2)c1 | 2.82 µM [falling, partial curve, poor fit] | –
55 | Cc1ccc(S(=O)(=O)/N=C(\CN2CCOCC2)N2CCOCC2)cc1 | 35.5 µM [falling, partial curve, poor fit] | –
56 | COc1cccc(/C=C/c2onc(C)c2S(=O)(=O)N2CCC(C(=O)N3CCC(C)CC3)CC2)c1 | 0.708 µM [rising, full curve, poor fit] | –
57 | Cc1ccc(S(=O)(=O)/C(C#N)=C/c2c(N3CCN(C)CC3)nc3c(C)cccn3c2=O)cc1 | 7.08 µM [falling, partial curve, poor fit] | –
58 | Cn1c(Cn2nnc3ccccc32)nnc1SCC(=O)c1ccccc1F | 23.1 µM [rising, partial curve] | 32.6 µM [falling, partial curve, poor fit]
59 | COc1ccc(/C=C(\C#N)C(=O)OCC(=O)NC2CC2)cc1 | 12.6 µM [rising, partial curve, poor fit] | –
60 | Nc1cc(=O)[nH]c(=O)n1CC1CC1 | – | 18.4 µM [falling, partial curve, poor fit]
61 | CCCc1c(C)nn(-c2ncccc2[N+](=O)[O-])c1C | 35.5 µM [rising, partial curve, poor fit] | –

— PubChem BioAssay AID493014 (National Center for Advancing Translational Sciences (NCATS), 2011)
